Data taken from PMC11446229.
No constants are given. Whether binding was seen depends on the method and setting. Some entries that bind do so weakly or less than the wild type.

Columns and labels:
[1] = biological target: T1, SufS, cysteine desulfurase of the SUF system (E. coli) (UniProt P77444); assay: native MS; CyaY added to SufS in the absence of SufE, with or without 1 mM DTT; both purified
T1 sequence: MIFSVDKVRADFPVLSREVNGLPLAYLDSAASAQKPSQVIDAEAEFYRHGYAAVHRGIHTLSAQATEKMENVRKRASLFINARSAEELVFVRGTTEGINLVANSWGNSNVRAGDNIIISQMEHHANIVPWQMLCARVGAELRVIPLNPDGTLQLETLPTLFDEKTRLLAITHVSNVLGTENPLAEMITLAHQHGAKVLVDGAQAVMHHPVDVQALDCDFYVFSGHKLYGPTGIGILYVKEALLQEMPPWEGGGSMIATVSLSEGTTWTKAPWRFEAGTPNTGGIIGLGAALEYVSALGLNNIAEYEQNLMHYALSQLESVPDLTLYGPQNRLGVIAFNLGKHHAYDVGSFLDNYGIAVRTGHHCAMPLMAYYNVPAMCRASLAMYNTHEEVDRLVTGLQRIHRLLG

[2] = biological target: T1, SufS, cysteine desulfurase of the SUF system (E. coli); assay: native MS; 8-fold excess of CyaY added to equimolar IscS and SufS (8 uM each, 4 uM dimeric species); both purified

B1: CyaY, the frataxin homolog of Escherichia coli (protein, UniProt P27838 1-106)
chain: MNDSEFHRLADQLWLTIEERLDDWDGDSDIDCEINGGVLTITFENGSKIIINRQEPLHQVWLATKQGGYHFDLKGDEWICDRSGETFWDLLEQAATQQAGETVSFR
- binding [1]: binds weakly
- binding [2]: binds weakly
